These are yes or no findings as the source states them, for the method shown. In cells and extracts the contact can be indirect. Some binding calls cover weakened binding; strength is not graded here.
How the values were obtained:
SIRT1 (human) = SIRT1 (human) (UniProt Q96EB6); assay: co-IP; reciprocal immunoprecipitation and immunoblot with HEK293 cells; RIPA buffer, 4 °C overnight
SIRT2 = biological target: T1, SIRT2 (UniProt Q8IXJ6); assay: as above
T1 sequence: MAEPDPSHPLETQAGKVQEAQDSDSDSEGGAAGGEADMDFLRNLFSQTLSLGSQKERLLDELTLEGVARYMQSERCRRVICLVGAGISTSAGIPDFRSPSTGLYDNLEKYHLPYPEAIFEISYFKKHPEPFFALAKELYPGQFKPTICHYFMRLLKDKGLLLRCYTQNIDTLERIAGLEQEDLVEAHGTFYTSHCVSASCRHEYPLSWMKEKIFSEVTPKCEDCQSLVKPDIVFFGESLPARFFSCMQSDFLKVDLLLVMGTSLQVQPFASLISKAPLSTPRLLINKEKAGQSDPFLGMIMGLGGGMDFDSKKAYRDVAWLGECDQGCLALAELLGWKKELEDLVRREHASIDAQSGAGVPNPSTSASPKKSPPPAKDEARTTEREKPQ

The chains behind the UniProt entries cited, without tags or fusion partners. Where a name states a change or a piece, a line headed by the entry shows the natural chain unless it says otherwise.
UniProt Q96EB6: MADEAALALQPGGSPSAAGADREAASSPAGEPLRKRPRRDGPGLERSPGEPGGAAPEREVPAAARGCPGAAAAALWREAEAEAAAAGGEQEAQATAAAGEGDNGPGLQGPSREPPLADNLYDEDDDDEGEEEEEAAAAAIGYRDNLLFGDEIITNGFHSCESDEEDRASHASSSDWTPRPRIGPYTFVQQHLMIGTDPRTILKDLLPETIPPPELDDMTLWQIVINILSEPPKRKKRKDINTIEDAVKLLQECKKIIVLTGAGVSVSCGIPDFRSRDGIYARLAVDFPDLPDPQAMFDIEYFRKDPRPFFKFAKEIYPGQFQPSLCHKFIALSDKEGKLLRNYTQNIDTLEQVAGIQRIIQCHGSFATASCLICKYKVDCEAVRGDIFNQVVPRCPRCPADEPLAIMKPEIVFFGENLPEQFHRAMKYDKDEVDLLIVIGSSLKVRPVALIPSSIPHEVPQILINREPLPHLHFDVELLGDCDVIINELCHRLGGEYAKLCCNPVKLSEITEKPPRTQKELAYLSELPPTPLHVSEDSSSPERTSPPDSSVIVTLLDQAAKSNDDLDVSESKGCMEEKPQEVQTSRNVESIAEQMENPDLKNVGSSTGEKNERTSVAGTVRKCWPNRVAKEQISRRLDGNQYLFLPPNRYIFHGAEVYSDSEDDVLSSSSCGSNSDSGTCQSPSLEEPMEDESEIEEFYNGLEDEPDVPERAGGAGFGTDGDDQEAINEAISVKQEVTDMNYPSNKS
UniProt P61809: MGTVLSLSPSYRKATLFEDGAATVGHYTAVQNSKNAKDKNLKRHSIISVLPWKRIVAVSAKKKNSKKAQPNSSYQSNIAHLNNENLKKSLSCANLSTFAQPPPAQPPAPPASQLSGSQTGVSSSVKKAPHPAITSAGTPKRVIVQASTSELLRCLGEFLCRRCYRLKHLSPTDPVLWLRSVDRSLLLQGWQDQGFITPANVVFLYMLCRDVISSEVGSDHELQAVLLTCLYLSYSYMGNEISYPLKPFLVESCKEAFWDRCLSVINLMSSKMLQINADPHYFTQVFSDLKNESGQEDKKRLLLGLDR

[1] = biological target: Recombinant His-tagged mouse CDK5 acetylated at K33 (mouse) (UniProt P49615); assay: pull-down; 10 ug purified His-CDK5 WT or His-Ac-CDK5 bound to Ni-NTA resin in PBS with protease inhibitors and 10 mM nicotinamide; incubated with pre-cleared lysate (2 mg) of HEK293 cells transfected with p35-FLAG or p25-FLAG, 4 °C overnight; washed with PBS; immunoblot with anti-FLAG, anti-His and anti-Ac-CDK5; only the target purified
[2] = biological target: Recombinant His-tagged mouse CDK5 wild type (mouse) (UniProt P49615); assay: as above

Row | binding (SIRT1 (human)) | binding (SIRT2) | binding [1] | binding [2] | Substance
1 | binds | binds |  |  | CDK5 in HEK293 cells (co-immunoprecipitation) (from UniProt P49615 1-292) (enzyme)
2 |  |  | binds | binds | p35-FLAG (from UniProt P61809 1-307)
3 |  |  | binds | binds | p25-FLAG (from UniProt P61809 99-307) (domain or fragment)

Source: article PMC6135752
